The list shows a part of the results.

Protein sequences, listed by entry. Tags and fused reporters are not part of them.
UniProt Q0JBA9, entry or part of it: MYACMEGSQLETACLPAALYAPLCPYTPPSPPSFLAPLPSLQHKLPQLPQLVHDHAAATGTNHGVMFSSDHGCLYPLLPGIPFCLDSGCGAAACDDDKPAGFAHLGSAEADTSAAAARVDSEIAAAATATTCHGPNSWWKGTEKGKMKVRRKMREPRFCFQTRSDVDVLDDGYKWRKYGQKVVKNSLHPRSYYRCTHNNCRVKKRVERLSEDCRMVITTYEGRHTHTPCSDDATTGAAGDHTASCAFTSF

This test deals with OsWRKY34 (Oryza sativa, UniProt Q0JBA9 1-250). Briefly: protein-binding microarray (RPBM); PBS, 2% BSA, 51.3 ng/ul salmon testes DNA, 50 uM zinc acetate, 200 nM TF, 25 C, 1 h; high values mean tight binding. Particulars: protein: recombinant; tags: N-terminal polyhistidine and DsRed monomer fusion (pET32a); label: CyDye5-dUTP incorporated in the synthesized complementary strand; 3' TTTTT single-stranded linker to array surface; dsDNA, one strand shown. The method in brief:
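The binding signal is fluorescence intensity per array feature (arbitrary units). Readings came from an Axon 4000B scanner after a washed, 2% BSA-blocked, double-stranded custom Agilent array had been incubated for 1 h at 25 °C with 200 nM protein and 50 µM zinc acetate. The protein was a Ni–NTA-purified transcription factor fused N-terminally to polyhistidine and DsRed, expressed in E. coli BL21-CodonPlus.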
Take “GCTTCCGCTGCTGCGAGCGATCCGAGGGGCGGGGAGAAAACGGAGTCACCTAGTGCAG”: the binding signal was 8660 fluorescence intensity (a.u.). To “ATTGTTGGTTTGCTTGTCCCGTCGATCTCATCTATTACTGCGGAGTCACCTAGTGCAG” belongs 8700 fluorescence intensity (a.u.); to “CCACCTACCATATGGCGTTGGCCGTTGAAACATCCCCTGTCGGAGTCACCTAGTGCAG”, 8980 fluorescence intensity (a.u.). For “CCCATCCATAATCTTGGACTAATTCGCGAGACGAATCTATCGGAGTCACCTAGTGCAG”, the binding signal is 8170 fluorescence intensity (a.u.). To “TTTGTGGGTTTGGGGCTGACTAGATACAGTTGTCGTTTTGCGGAGTCACCTAGTGCAG” belongs 12100 fluorescence intensity (a.u.). For “TGTGGTGCTTTTTTTTTTAGAGAATGGTATTTTTTTACATCGGAGTCACCTAGTGCAG”, the binding signal is 10400 fluorescence intensity (a.u.).

For “ACTGGGGTATGGAGGTGGTGCCAACATTTTAATTCTTCGTCGGAGTCACCTAGTGCAG”, the binding signal was 10500 fluorescence intensity (a.u.). In the case of “GGTTGTTGTTGATGTATGACAAGACTAGCTATTACCTATCCGGAGTCACCTAGTGCAG”, the binding signal is 8790 fluorescence intensity (a.u.). To “CAGGTCCACCCTCAGGGCTTCCCCTACCTTGTCGTTCTCCCGGAGTCACCTAGTGCAG” belongs 12800 fluorescence intensity (a.u.); to “GTTCTCCATGGACGCCTTGATCTGCTCCGGCTTGGTGTTCCGGAGTCACCTAGTGCAG”, 10800 fluorescence intensity (a.u.). As for “AACCGACCAGCGACCCCACGGCGTCATTCCGTTGGGCCCACGGAGTCACCTAGTGCAG”, the binding signal is 10000 fluorescence intensity (a.u.). With “GCGTCCGCCATCGAATCCAACGAGCCAGCAAGTTTCATCACGGAGTCACCTAGTGCAG” the figure was 8720 fluorescence intensity (a.u.). With “TACTCTATATAATGTAATTGCACTAATATACTTTGTTTTCCGGAGTCACCTAGTGCAG” the figure was 9760 fluorescence intensity (a.u.). Turning to “ACGCGCCCGTCCCTTCCCTCGCCGGTCCGCATGCCGCTGTCGGAGTCACCTAGTGCAG”, the binding signal was 8440 fluorescence intensity (a.u.).

Take “ACTACCATGCTTCATATGATTGAGCGCGCTGCAATTTGCACGGAGTCACCTAGTGCAG”: the binding signal is 8110 fluorescence intensity (a.u.). To “AGGTAACTGTATTCGTTTGTTCCCTTCAACGGCTCAATCCCGGAGTCACCTAGTGCAG” belongs 8240 fluorescence intensity (a.u.); to “GACATAATAATCCGTGCATGTTTCCTAACTCTCAGATAATCGGAGTCACCTAGTGCAG”, 10000 fluorescence intensity (a.u.); to “CAAACCACCACCACTTTCCACTCACTAAAAACATCACATCCGGAGTCACCTAGTGCAG”, 9020 fluorescence intensity (a.u.). As for “ACTCCAGCACCTTCTCGTCCATGATCCGCGGCGGCCCCAGCGGAGTCACCTAGTGCAG”, the binding signal was 9330 fluorescence intensity (a.u.). To “CCCTCACTGGATTGGCTCTCATCTCATCGATCCTGCTCACCGGAGTCACCTAGTGCAG” belongs 8580 fluorescence intensity (a.u.); to “GTGGAACGACCACCTCACGGCCCTTACCCGCCTTATCTTCCGGAGTCACCTAGTGCAG”, 10100 fluorescence intensity (a.u.); to “CTATATCGCACGTACTCCGGTACCAACGATCCTATACCATCGGAGTCACCTAGTGCAG”, 9910 fluorescence intensity (a.u.). For “AGCCTACACCAGTACACCACCATCTTCCTCGTTCGGTTCCCGGAGTCACCTAGTGCAG”, the binding signal is 13800 fluorescence intensity (a.u.). With “TCTTCGCCTTCCGCCAGGAGCTCGTCTGCACGACGTTTTCCGGAGTCACCTAGTGCAG” the figure was 10000 fluorescence intensity (a.u.); with “CCATCACGCAGCCGCTCCGGTTGCGTCTTTGTCGGCCACTCGGAGTCACCTAGTGCAG”, 8330 fluorescence intensity (a.u.). On to “ATCCCACCCTACACTTTCCATTATCCAAACGCACTCTTACCGGAGTCACCTAGTGCAG”, for which the binding signal was 8310 fluorescence intensity (a.u.). “ACATCCTTTGCATCATCTGGGCTGTTAGCAGTTCACGTTTCGGAGTCACCTAGTGCAG”: the binding signal was 9680 fluorescence intensity (a.u.). Turning to “TATATAAGCGCATTTGCCATGACACTATCGTTCATCACCACGGAGTCACCTAGTGCAG”, the binding signal was 9700 fluorescence intensity (a.u.).

With “CGAGTGTGAGTGGCGGTGGTTTTGGGGTGAAAGTGCATGTCGGAGTCACCTAGTGCAG”, the binding signal is 8390 fluorescence intensity (a.u.). To “GATCTCACACTGACTACGGGCCCCACCTGTCACACACACTCGGAGTCACCTAGTGCAG” belongs 8530 fluorescence intensity (a.u.); to “CGTCTATCTAAAATGTTTCCGTACCATTAAGAGCTCCTTTCGGAGTCACCTAGTGCAG”, 9300 fluorescence intensity (a.u.). With “CATTTTGTCACGGCTTTATAAATTACTTCAGTTCTTGTGACGGAGTCACCTAGTGCAG” the figure was 9940 fluorescence intensity (a.u.). To “AGCTACCACACCTTGGCCTAACTTAACGGAGATACTTTTTCGGAGTCACCTAGTGCAG” belongs 9420 fluorescence intensity (a.u.); to “TAGATATCTTGTAGCAAATTTTGTTCAGTACCGTATTTTTCGGAGTCACCTAGTGCAG”, 9730 fluorescence intensity (a.u.).

With “TCCTTTCTTCCGGTTCTCCTATCCCCTGTTGCTCTTTGTTCGGAGTCACCTAGTGCAG”, the binding signal is 8260 fluorescence intensity (a.u.). With “ACGGGCACTCGCTTCTCCACTAGGGTTTCTCGCCGCCGCCCGGAGTCACCTAGTGCAG” the figure was 9300 fluorescence intensity (a.u.). As for “TTAGATGTCACATCGGATGTTTGACCAGATGTCGGAAGGGCGGAGTCACCTAGTGCAG”, the binding signal is 8260 fluorescence intensity (a.u.). To “GTCCCGTGCCGCCGCCGCCTTCGCTCCTCCCCGCCGTACTCGGAGTCACCTAGTGCAG” belongs 8070 fluorescence intensity (a.u.); to “TACTGTACTTCCTTTCACTACACCATGACACTAGATTACCCGGAGTCACCTAGTGCAG”, 10200 fluorescence intensity (a.u.).

On to “TATGATGGTTGGGGCTGTCACAGCTGCGCTTGGTGCTTCTCGGAGTCACCTAGTGCAG”, for which the binding signal is 8260 fluorescence intensity (a.u.). To “CCGCACCGCCGGATGCCGCCGCCGCTCGCTCTCGCTGTCCCGGAGTCACCTAGTGCAG” belongs 8430 fluorescence intensity (a.u.); to “AGAAATAGGGTTATGAAATTCAGCAACATATGTGATTTGACGGAGTCACCTAGTGCAG”, 8240 fluorescence intensity (a.u.). With “GTTAATCGGCCACTCTGTTTTTTTGGTTACACCCACTACCCGGAGTCACCTAGTGCAG” the figure was 9900 fluorescence intensity (a.u.); with “CCAGGTCTGTTTTACCGGGTCTCGAAGTTTCCTTGCTTGGCGGAGTCACCTAGTGCAG”, 8350 fluorescence intensity (a.u.). With “CGTCCGATCGGGCTCGCGCGTTGACTATAACCGGTCCACGCGGAGTCACCTAGTGCAG” the figure was 13100 fluorescence intensity (a.u.); with “GCCACAGAGATGATGGTTTGTATTGATCATACTAGTTACTCGGAGTCACCTAGTGCAG”, 8860 fluorescence intensity (a.u.); with “TGATTAATCCATCTATCGCGTTGAGCTATACTCGTCTTCACGGAGTCACCTAGTGCAG”, 9270 fluorescence intensity (a.u.).

As for “TAGGATACTGACTCATGTTGCTGCTGCTCTTTTCGTCTATCGGAGTCACCTAGTGCAG”, the binding signal is 11700 fluorescence intensity (a.u.).

Regarding “AAACGAATAGTCAAACGTTGATCGAAAAGTCAACGGCGTCCGGAGTCACCTAGTGCAG”, the binding signal is 19300 fluorescence intensity (a.u.). To “ACCACGGCAAGCCCCTCGCCGAGTCTCTCATCATCGTCGACGGAGTCACCTAGTGCAG” belongs 8830 fluorescence intensity (a.u.); to “ACCAAAAAGATGCCATGTTTTTTCAGCCCAAACTACAATGCGGAGTCACCTAGTGCAG”, 8070 fluorescence intensity (a.u.). With “GACCAGCCTCTATATTTCCATTCTCATGATCCATGGGCAACGGAGTCACCTAGTGCAG” the figure was 9210 fluorescence intensity (a.u.).

With “AAATATCACCAGCTACCTGATTCATTATTCATCCATCACTCGGAGTCACCTAGTGCAG”, the binding signal is 10900 fluorescence intensity (a.u.). Consider “TGGTGGTGGTGGTGGTAGGGTTAGGGGTAGGAGGGGTCTCCGGAGTCACCTAGTGCAG”, for which the binding signal is 12900 fluorescence intensity (a.u.).

The values above are taken from publication PMC7819943, “Rice protein-binding microarrays: a tool to detect cis-acting elements near promoter regions in rice”.
